Source: patent US20100119512A1, “METHODS OF DIAGNOSING, TREATING, AND PREVENTING INCREASED VASCULAR PERMEABILITY” (Joslin Diabetes Center, priority 2007, published 2010)

Experiment: Vitreous pH after intravitreal injection (micro-electrode or BCECF-dextran probe)
Format: in vivo, rat

For “CA-I: human erythrocyte CA-I (Sigma), carbonic anhydrase 1”, the “pH of vitreous, electrode” value (5 min after intravitreal injection, microminiature electrode) was 7.8±0.21 and the “vitreous pH calculated using pH sensitive dye and reference pH” value (following intravitreal injection, BCECF-dextran) was 7.96±0.38.
